Measured values as given in patent publication US20250177576A1, “COMPOUNDS FOR THE MEASUREMENT OF THE OXYGEN CONCENTRATION” (Center for Neuromusculoskeletal Restorative Medicine Limited, priority 2022, published 2025).

Experiment: Oxygen quenching calibration (Stern-Volmer) in tetrahydrofuran
Format: physicochemical
Settings: 10 μM in tetrahydrofuran
Procedure: The photoluminescence spectra of the Pt(ttiq)(acac) (10 μM) in tetrahydrofuran in different oxygen concentrations upon 500 nm photoexcitation is presented in FIG. 2A. The phosphorescence peak intensity (698 nm) increases while the oxygen level of the solution decreases, whereas the fluorescence (528 nm) remains independent of the oxygen level. The oxygen quenching of the phosphorescence may be interpreted using Stern-Volmer relationship, in which (I0/I=1+KSV·[O2]) where I: phosphorescence intensity; I0: phosphorescence intensity at 0% of oxygen; KSV: quencher coefficient; [O2]: oxygen concentration. […] Mathematically, the Stern-Volmer relationship could be further derived to (R0/R=1+KSV·[O2]) whereas the fluorescence peak intensity is a constant, and thus the R0 could be estimated from the equation of (y=2.04177/(1+0.03267−x); adjusted R^2=0.97785) in FIG. 2D. […]
The oxygen concentration (%) or partial pressure of solution samples were varied by O2/N2 gas-purging with a syringe needle and natural ventilation (or gradually adding sodium sulfite (Na2SO3) solution as an oxygen consuming chemical reagent). […] The photoluminescence signals of the nano-sensor solution at different oxygen concentrations (%) (or partial pressures) were then measured by the fluorescence spectrophotometer and confocal laser scanning microscope. […]

Structure (SMILES): CC(=O)C=C(C)[O][Pt][c]1c(-c2nccc3ccccc23)sc2ccsc12 [Pt(ttiq)(acac)]
- estimated maximum intensity ratio R0 (phosphorescence over fluorescence, FIG. 2D): 2.042
- estimated maximum phosphorescence intensity I0 (Stern-Volmer fit, FIG. 2B): 133.8
